Measurements as given in the supplement of paper PMC10849652.
This is one part of the list.

Chains of the proteins cited; added tags and fusions are not shown. Lines headed by an entry give the natural chain unless they say otherwise; changes in a name come on top.
UniProt Q96HI0: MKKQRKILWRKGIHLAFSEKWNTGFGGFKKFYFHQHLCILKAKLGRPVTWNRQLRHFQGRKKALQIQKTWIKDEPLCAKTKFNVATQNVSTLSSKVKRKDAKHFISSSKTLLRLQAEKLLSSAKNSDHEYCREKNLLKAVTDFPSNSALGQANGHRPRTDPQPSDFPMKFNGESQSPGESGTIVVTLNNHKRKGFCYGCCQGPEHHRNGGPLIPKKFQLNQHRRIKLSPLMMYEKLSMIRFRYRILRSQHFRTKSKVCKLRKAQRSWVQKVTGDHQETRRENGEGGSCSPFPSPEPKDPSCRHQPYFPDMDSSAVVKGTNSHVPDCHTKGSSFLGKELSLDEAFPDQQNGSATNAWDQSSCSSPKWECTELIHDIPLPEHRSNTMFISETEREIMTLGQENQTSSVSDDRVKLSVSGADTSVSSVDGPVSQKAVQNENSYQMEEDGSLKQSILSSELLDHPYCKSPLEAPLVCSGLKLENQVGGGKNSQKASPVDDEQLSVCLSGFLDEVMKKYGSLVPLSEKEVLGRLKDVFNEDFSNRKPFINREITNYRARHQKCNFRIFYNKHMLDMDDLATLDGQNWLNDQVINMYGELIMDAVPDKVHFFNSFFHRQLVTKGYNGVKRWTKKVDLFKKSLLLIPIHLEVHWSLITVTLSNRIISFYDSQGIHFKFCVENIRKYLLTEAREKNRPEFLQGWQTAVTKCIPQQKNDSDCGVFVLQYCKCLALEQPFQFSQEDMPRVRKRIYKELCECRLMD
UniProt Q8WU76: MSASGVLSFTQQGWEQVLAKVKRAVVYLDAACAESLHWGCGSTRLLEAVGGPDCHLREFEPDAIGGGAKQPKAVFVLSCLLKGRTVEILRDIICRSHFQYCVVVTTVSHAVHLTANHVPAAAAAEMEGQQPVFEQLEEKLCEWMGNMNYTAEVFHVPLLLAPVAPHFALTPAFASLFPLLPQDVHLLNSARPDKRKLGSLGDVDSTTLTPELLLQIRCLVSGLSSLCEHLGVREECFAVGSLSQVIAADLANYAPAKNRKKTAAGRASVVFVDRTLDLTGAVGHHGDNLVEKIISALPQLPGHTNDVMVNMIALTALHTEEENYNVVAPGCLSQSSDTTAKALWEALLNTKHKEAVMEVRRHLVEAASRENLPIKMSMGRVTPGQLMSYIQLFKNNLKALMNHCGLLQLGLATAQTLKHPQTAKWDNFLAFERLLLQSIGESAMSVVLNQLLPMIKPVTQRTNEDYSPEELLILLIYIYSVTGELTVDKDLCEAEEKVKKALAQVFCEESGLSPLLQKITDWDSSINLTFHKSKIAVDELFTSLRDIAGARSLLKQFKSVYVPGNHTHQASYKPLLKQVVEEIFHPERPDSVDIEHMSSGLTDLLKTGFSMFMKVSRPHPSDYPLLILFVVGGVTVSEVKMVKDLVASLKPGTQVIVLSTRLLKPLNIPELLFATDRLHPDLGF
UniProt Q15437: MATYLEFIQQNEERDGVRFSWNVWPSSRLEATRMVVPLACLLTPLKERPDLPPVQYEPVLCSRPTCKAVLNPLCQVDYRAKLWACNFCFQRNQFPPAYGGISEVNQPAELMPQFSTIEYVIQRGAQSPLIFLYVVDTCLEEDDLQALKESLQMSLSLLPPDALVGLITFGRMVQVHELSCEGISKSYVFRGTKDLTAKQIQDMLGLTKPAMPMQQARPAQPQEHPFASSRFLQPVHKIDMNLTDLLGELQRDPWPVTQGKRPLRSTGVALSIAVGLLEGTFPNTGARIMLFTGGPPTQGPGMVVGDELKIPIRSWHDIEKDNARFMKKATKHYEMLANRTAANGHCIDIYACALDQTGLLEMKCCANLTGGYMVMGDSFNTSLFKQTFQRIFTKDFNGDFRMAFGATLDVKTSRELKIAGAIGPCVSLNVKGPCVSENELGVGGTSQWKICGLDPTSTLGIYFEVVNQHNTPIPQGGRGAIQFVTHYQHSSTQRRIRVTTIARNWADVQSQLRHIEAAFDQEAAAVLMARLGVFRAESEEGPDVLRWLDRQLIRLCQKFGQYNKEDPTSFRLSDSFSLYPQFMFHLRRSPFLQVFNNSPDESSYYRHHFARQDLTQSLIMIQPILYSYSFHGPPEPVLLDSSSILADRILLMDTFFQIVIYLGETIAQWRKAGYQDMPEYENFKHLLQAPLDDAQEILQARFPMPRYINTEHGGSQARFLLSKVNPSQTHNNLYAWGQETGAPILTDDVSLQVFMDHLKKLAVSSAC
UniProt Q96ER3: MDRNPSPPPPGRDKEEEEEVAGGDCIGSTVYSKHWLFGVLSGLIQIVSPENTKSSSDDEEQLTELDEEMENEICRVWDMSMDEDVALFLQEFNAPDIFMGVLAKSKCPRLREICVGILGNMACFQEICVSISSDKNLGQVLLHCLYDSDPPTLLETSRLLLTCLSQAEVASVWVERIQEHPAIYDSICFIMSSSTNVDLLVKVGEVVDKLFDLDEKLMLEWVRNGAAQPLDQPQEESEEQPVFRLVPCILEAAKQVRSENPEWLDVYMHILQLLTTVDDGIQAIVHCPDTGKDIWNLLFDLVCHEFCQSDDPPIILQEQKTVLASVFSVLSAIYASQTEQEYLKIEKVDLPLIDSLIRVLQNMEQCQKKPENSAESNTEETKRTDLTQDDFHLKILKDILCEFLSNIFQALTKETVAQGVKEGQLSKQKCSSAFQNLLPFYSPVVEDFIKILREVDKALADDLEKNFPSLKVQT
UniProt A3KN83: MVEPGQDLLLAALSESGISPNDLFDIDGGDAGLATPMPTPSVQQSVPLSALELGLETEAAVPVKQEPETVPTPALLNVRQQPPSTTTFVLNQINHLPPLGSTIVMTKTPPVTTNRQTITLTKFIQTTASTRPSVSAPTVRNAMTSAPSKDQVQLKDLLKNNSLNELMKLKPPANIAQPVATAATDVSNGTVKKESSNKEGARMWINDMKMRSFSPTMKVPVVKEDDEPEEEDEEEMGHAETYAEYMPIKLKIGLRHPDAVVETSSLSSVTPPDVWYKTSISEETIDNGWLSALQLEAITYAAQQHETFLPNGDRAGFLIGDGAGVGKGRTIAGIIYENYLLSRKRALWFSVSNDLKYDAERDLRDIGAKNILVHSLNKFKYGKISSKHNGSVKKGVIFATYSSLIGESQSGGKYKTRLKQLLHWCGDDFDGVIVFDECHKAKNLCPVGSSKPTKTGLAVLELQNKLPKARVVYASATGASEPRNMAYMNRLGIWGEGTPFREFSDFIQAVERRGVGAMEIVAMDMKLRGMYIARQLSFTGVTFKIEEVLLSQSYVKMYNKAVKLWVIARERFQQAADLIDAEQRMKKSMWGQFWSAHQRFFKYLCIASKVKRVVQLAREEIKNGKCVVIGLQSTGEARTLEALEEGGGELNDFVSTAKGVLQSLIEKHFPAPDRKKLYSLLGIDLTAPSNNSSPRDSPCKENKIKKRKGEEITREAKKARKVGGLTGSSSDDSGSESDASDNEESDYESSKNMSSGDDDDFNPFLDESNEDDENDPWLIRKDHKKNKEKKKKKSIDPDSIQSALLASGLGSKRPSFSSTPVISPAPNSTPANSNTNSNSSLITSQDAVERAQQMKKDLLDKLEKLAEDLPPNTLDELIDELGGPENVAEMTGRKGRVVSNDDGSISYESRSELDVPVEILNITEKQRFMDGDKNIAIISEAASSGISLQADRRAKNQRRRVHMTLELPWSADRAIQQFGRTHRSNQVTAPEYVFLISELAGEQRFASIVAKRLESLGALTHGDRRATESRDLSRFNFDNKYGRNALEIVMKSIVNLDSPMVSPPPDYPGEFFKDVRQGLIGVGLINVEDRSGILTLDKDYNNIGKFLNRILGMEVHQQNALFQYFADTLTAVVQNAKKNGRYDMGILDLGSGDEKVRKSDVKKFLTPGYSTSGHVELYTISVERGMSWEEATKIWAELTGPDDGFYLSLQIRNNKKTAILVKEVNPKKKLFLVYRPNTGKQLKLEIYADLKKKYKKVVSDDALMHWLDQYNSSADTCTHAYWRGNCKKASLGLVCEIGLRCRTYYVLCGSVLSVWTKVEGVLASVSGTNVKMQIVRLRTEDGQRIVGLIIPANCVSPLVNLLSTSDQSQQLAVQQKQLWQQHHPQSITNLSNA
UniProt Q9H9S3, whole entry, looked up: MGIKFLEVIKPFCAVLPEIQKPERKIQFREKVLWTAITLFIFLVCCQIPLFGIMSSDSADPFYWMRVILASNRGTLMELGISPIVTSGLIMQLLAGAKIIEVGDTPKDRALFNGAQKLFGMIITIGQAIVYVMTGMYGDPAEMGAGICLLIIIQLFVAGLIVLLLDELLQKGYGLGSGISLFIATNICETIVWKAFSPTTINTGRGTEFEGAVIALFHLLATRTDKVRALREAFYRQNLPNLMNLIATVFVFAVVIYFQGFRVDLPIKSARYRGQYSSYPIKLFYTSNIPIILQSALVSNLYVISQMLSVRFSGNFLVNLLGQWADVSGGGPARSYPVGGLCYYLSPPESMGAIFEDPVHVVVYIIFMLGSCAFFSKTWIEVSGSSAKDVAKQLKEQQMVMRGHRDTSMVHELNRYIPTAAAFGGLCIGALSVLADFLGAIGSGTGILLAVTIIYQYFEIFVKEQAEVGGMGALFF
UniProt Q9C0C4, whole entry, looked up: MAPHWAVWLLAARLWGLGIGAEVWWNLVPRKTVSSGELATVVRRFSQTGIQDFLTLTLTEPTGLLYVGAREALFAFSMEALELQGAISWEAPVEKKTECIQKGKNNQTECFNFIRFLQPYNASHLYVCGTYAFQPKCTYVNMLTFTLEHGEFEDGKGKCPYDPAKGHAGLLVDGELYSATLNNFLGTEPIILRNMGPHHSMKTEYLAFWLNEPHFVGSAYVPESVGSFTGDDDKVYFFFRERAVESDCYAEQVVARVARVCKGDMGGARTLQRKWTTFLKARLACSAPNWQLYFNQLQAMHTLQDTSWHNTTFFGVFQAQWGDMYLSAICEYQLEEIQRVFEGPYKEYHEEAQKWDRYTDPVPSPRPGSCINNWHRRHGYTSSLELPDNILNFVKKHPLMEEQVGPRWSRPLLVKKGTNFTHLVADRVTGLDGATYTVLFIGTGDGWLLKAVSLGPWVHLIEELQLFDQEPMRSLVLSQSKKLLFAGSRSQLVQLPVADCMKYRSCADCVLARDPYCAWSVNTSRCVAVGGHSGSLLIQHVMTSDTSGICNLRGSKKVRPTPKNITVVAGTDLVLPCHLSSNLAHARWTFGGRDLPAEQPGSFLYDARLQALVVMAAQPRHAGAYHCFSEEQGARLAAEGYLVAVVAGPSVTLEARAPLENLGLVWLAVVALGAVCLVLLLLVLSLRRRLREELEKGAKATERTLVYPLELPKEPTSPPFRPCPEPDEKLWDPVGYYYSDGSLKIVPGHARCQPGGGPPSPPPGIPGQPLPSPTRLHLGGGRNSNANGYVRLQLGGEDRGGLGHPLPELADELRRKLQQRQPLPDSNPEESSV
UniProt O43290: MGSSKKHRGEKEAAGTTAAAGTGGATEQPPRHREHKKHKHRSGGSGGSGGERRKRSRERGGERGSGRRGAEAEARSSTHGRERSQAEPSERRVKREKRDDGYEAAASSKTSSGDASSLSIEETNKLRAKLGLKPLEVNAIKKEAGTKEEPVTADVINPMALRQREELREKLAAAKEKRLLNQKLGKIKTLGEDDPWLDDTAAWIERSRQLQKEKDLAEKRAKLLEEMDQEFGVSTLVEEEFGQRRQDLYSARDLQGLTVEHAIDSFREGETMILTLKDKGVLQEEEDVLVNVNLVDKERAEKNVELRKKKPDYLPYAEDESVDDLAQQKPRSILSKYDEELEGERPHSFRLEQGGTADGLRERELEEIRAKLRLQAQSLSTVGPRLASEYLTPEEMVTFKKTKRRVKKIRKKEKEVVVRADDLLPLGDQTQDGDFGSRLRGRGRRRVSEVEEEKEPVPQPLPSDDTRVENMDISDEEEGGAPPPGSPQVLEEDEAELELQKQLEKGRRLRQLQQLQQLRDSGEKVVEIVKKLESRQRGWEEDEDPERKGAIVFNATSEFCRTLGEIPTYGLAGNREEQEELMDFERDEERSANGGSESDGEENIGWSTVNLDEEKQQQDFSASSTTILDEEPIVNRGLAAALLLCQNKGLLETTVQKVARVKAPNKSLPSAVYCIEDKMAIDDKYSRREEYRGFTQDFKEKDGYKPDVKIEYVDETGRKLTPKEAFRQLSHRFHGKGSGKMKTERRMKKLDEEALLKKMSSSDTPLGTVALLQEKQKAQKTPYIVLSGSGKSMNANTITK
UniProt Q96IW7: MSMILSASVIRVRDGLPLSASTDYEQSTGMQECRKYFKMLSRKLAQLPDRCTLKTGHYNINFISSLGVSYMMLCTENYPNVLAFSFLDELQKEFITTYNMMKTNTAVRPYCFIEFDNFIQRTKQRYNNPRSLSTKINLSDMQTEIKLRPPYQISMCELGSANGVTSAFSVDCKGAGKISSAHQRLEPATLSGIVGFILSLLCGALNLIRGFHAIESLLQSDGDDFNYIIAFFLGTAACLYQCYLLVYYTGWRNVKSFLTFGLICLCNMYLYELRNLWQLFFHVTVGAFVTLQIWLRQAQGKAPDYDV

What was measured:
Test in all cases: log2 fold change, soluble protein after heating vs DMSO (PISA); higher = thermal stabilisation; K562 lysate, 10 uM; active = over 0.2 and 3.5 SD of the protein, either way, in both replicates (recomputed)
[1] = compound: C1=CC=C(C=C1)[C@H](COC2=CC3=C(C=C2)NC(=O)N3)NC(=O)C4=CC=CN(C4=O)CC5=CC(=C(C=C5)F)F
Outline: (§1)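 Values give the log-two fold change in thermal stability against solvent controls, from duplicates. Crude K562 extract at 1 mg/mL protein, made by dounce homogenisation in PBS pH 7.4 with 1 mM MgCl2, was treated with 10 μM compound for 30 min. After 3 min heating across 48°C-58°C, aliquots were pooled, adjusted to 0.5% NP-40 at 4°C and centrifuged at 21,000xg for 90 min. The supernatant was measured by TMTpro 16plex LC-MS/MS with channel sums equalised.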

[2] = compound: CC1=C(SC2=C1C(=N[C@H](C3=NN=C(N32)C)CC(=O)N)C4=CC=C(C=C4)Cl)C
Outline: as §1

[3] = compound: CC1=C2C(=CC=C1)N=C(N(C2=O)C3=CC=CC=C3C)CN4C=NC5=C(N=CN=C54)N
Outline: as §1

[4] = compound: Cc1sc2c(c1C)C(c1ccc(Cl)cc1)=N[C@@H](CC(=O)OC(C)(C)C)c1nnc(C)n1-2
Outline: as §1

[5] = compound: c1ccc([C@@H]2C[C@H]2NC2CCNCC2)cc1
Outline: as §1

erlotinib = compound: C#Cc1cccc(Nc2ncnc3cc(OCCOC)c(OCCOC)cc23)c1 [erlotinib]
Outline: as §1

[6] = compound: C1=CC(=CC=C1C2=NC3=C(N2)C=C(C=C3)C(=O)N)OC4=CC=C(C=C4)Cl
Outline: as §1

[7] = compound: C1=CC2=NC=CN=C2C=C1/C=C/3\C(=O)NC(=O)S3
Outline: as §1

[8] = compound: C1=CC=C(C=C1)C2=NC(=C(N2)C3=CC=NC=C3)C4=CC(=C(C=C4)Cl)O
Outline: as §1

IRAK-1-4 Inhibitor I = compound: C1COCCN1CCN2C3=CC=CC=C3N=C2NC(=O)C4=CC(=CC=C4)[N+](=O)[O-] [IRAK-1-4 Inhibitor I]
Outline: as §1

ibrutinib = compound: C=CC(=O)N1CCC[C@@H](n2nc(-c3ccc(Oc4ccccc4)cc3)c3c(N)ncnc32)C1 [ibrutinib]
Outline: as §1

[9] = compound: CC(=O)c1cnc2ccc(-c3cc(Cl)c(O)c(Cl)c3)nc2c1N[C@H]1CC[C@H](CN(C)C)CC1
Outline: as §1

ralimetinib = compound: CC(C)(C)Cn1c(N)nc2ccc(-c3[nH]c(C(C)(C)C)nc3-c3ccc(F)cc3)nc21 [ralimetinib]
Outline: as §1

[10] = compound: CC(C)(O)CC(=O)NCCn1ccc2ncnc(Nc3ccc(Oc4cccc(C(F)(F)F)c4)c(Cl)c3)c21
Outline: as §1

[11] = compound: CC(C)C1=C2N=C(C=C(N2N=C1)NCC3=CC=CC=C3)NCCCCCCN
Outline: as §1

[12] = compound: CC1=C(C(CC(=O)N1)C2=CC=C(C=C2)C(F)(F)F)C(=O)NC3=C(C=C4C(=C3)C=NN4)F
Outline: as §1

[13] = compound: CC1=C(C2=C(C=C1)C(=O)C3=CC=CC=C3N2CCCN)C
Outline: as §1

[14] = compound: CC1=C(C=C(C=C1)NC(=O)C2=CC(=CC=C2)N(C)C)NC(=O)C3=CC=C(C=C3)O
Outline: as §1

[15] = compound: CC1=CC=C(C=C1)SC2=C3C=C(SC3=CN=C2)C(=O)N
Outline: as §1

[16] = compound: CCCS(=O)(=O)Nc1ccc(F)c(C(=O)c2c[nH]c3ncc(Cl)cc23)c1F
Outline: as §1

barasertib = compound: CCN(CCCOc1ccc2c(Nc3cc(CC(=O)Nc4cccc(F)c4)[nH]n3)ncnc2c1)CCOP(=O)(O)O [barasertib]
Outline: as §1

volasertib = compound: CC[C@@H]1C(=O)N(C)c2cnc(Nc3ccc(C(=O)N[C@H]4CC[C@H](N5CCN(CC6CC6)CC5)CC4)cc3OC)nc2N1C(C)C [volasertib]
Outline: as §1

[17] = compound: CCn1c(C(=O)N(C2CC2)C2CC2)cc2c3c(ncn3C)c(Nc3cc(C)n(C)n3)nc21
Outline: as §1

[18] = compound: CCn1cc(-c2ccnc3[nH]c(-c4cccc(CN(C)C)c4)cc23)c(-c2ccc(NC(=O)N(C)C)cc2)n1
Outline: as §1

[19] = compound: CN1CCC(CNc2ccc3ncc(-c4cccc(OC(F)(F)F)c4)n3n2)CC1
Outline: as §1

saracatinib = compound: CN1CCN(CCOc2cc(OC3CCOCC3)c3c(Nc4c(Cl)ccc5c4OCO5)ncnc3c2)CC1 [saracatinib]
Outline: as §1

alvocidib = compound: CN1CC[C@H](c2c(O)cc(O)c3c(=O)cc(-c4ccccc4Cl)oc23)[C@H](O)C1 [alvocidib]
Outline: as §1

Tubastatin A = compound: CN1CCc2c(c3ccccc3n2Cc2ccc(C(=O)NO)cc2)C1 [Tubastatin A]
Outline: as §1

[20] = compound: CNC(=O)C1=CC=CC=C1NC2=NC(=NC=C2Cl)NC3=C(C=C(C=C3)N4CCOCC4)OC
Outline: as §1

[21] = compound: CNc1nc(-c2ccc3c(N)n[nH]c3c2)cc(N2C[C@@H](C(=O)NC3CCCCC3)CC[C@H]2C)n1
Outline: as §1

alisertib = compound: COc1cc(Nc2ncc3c(n2)-c2ccc(Cl)cc2C(c2c(F)cccc2OC)=NC3)ccc1C(=O)O [alisertib]
Outline: as §1

[22] = compound: COc1cc2nc(-c3cc(F)ccc3O)nc(N[C@@H]3CNC[C@H]3C(C)(C)O)c2cc1OC
Outline: as §1

gefitinib = compound: COc1cc2ncnc(Nc3ccc(F)c(Cl)c3)c2cc1OCCCN1CCOCC1 [gefitinib]
Outline: as §1

lapatinib = compound: CS(=O)(=O)CCNCc1ccc(-c2ccc3ncnc(Nc4ccc(OCc5cccc(F)c5)c(Cl)c4)c3c2)o1 [lapatinib]
Outline: as §1

pictilisib = compound: CS(=O)(=O)N1CCN(Cc2cc3nc(-c4cccc5[nH]ncc45)nc(N4CCOCC4)c3s2)CC1 [pictilisib]
Outline: as §1

[23] = compound: C[C@H](C1=CC=C(C=C1)C(=O)NC2=C3C=CNC3=NC=C2)N
Outline: as §1

duvelisib = compound: C[C@H](Nc1ncnc2nc[nH]c12)c1cc2cccc(Cl)c2c(=O)n1-c1ccccc1 [duvelisib]
Outline: as §1

gandotinib = compound: Cc1cc(Nc2cc(CN3CCOCC3)c3nc(C)c(Cc4ccc(Cl)cc4F)n3n2)n[nH]1 [gandotinib]
Outline: as §1

bafetinib = compound: Cc1ccc(NC(=O)c2ccc(CN3CC[C@H](N(C)C)C3)c(C(F)(F)F)c2)cc1Nc1nccc(-c2cncnc2)n1 [bafetinib]
Outline: as §1

[24] = compound: Cc1cccc(CC(=O)N2CCc3c2ccc(-c2cn(C)c4ncnc(N)c24)c3F)n1
Outline: as §1

nilotinib = compound: Cc1cn(-c2cc(NC(=O)c3ccc(C)c(Nc4nccc(-c5cccnc5)n4)c3)cc(C(F)(F)F)c2)cn1 [nilotinib]
Outline: as §1

[25] = compound: Cc1nc(Nc2n[nH]c3c2CN(C(=O)N[C@H](CN(C)C)c2ccccc2)C3(C)C)c2sccc2n1
Outline: as §1

dasatinib = compound: Cc1nc(Nc2ncc(C(=O)Nc3c(C)cccc3Cl)s2)cc(N2CCN(CCO)CC2)n1 [dasatinib]
Outline: as §1

[26] = compound: Cc1ncc(-c2ccnc(Nc3ccc(S(C)(=O)=O)cc3)n2)n1C(C)C
Outline: as §1

[27] = compound: Cn1cc(-c2ccc3c(c2)CCN3C(=O)Cc2cccc(C(F)(F)F)c2)c2c(N)ncnc21
Outline: as §1

tipifarnib = compound: Cn1cncc1[C@@](N)(c1ccc(Cl)cc1)c1ccc2c(c1)c(-c1cccc(Cl)c1)cc(=O)n2C [tipifarnib]
Outline: as §1

[28] = compound: NC(=O)c1cnc(N[C@@H]2CCCC[C@@H]2N)nc1Nc1cccc(-n2nccn2)c1
Outline: as §1

[29] = compound: NC1(c2ccc(-c3nc4ccn5c(=O)[nH]nc5c4cc3-c3ccccc3)cc2)CCC1
Outline: as §1

vorinostat = compound: O=C(CCCCCCC(=O)Nc1ccccc1)NO [vorinostat]
Outline: as §1

silmitasertib = compound: O=C(O)c1ccc2c(c1)nc(Nc1cccc(Cl)c1)c1ccncc12 [silmitasertib]
Outline: as §1

Measured: log2 fold change

SEC23IP (UniProt Q9Y6Y8)
inactive: [1] -0.008 | [2] 0.008 | [3] 0.016 | [4] 0.061 | [5] 0.03

SCRN3 (UniProt Q0VDG4)
inactive: [1] 0.033 | [2] -0.004 | [3] 0.001 | [4] 0.003 | [5] 0.003

SENP6 (UniProt Q9GZR1)
inactive: [1] 0.001 | [2] -0.006 | [3] 0.022 | [4] -0.057 | [5] -0.016

SENP5 (UniProt Q96HI0)
inactive: [1] -0.072 | [2] 0.082 | [3] -0.004 | [4] 0.024

SCFD2 (UniProt Q8WU76)
inactive: [1] 0.003 | [2] -0.018 | [3] -0.01 | [4] -0.053 | [5] -0.005

SEC23B (UniProt Q15437)
inactive: [1] 0.008 | [2] 0 | [3] 0.013 | [4] 0.003 | [5] 0.018

SCAF11 (UniProt Q99590)
inactive: [1] 0.072 | [2] -0.016 | [3] 0.032 | [4] -0.018 | [5] -0.044

SAAL1 (UniProt Q96ER3)
inactive: [1] -0.005 | [2] 0.002 | [3] 0.003 | [4] -0.017 | [5] 0.068

SBNO1 (UniProt A3KN83)
inactive: [1] 0.016 | [2] -0.001 | [3] 0.004 | [4] 0 | [5] -0.018

SEC61A2 (UniProt Q9H9S3)
inactive: [1] -0.01 | [2] -0.051 | [3] 0.005 | [4] -0.067 | [5] -0.103

SDCCAG8 (UniProt Q86SQ7)
inactive: [1] 0.012 | [2] -0.067 | [3] 0.018 | [4] -0.059 | [5] -0.069

SDCBP (UniProt O00560)
inactive: [1] -0.02 | [2] -0.004 | [3] -0.031 | [4] -0.018 | [5] 0.008

SEMA4C (UniProt Q9C0C4)
inactive: [1] 0.009 | [2] -0.023 | [3] 0.039 | [4] -0.032 | [5] -0.012

SART1 (UniProt O43290)
inactive: [1] 0.059 | [2] -0.031 | [3] 0.052 | [4] 0.002 | [5] -0.008

SCPEP1 (UniProt Q9HB40)
inactive: [1] -0.048 | [2] 0.002 | [3] -0.087 | [4] 0 | [5] 0.04

SARS1 (UniProt Q5T5C7)
inactive: erlotinib -0.008 | [6] -0.061 | [7] -0.014 | [8] 0.282 | [1] -0.091 | IRAK-1-4 Inhibitor I -0.062 | ibrutinib 0.026 | [9] 0.006 | ralimetinib 0.014 | [10] 0.041 | [11] -0.095 | [12] -0.008 | [13] 0.022 | [14] -0.167 | [2] 0.141 | [15] 0.032 | [16] 0.032 | barasertib 0.006 | volasertib -0.076 | [17] 0.136 | [18] 0.072 | [19] -0.041 | saracatinib -0.243 | alvocidib 0.082 | Tubastatin A 0.211 | [20] -0.063 | [21] -0.074 | alisertib -0.172 | [22] -0.066 | gefitinib -0.093 | lapatinib -0.012 | pictilisib -0.103 | [23] 0.194 | duvelisib 0.143 | gandotinib 0.036 | bafetinib -0.014 | [24] -0.162 | nilotinib 0.411 | [25] 0.097 | dasatinib -0.001 | [26] -0.29 | [4] 0.024 | [27] 0.105 | tipifarnib -0.095 | [28] -0.034 | [29] 0.123 | vorinostat -0.14 | silmitasertib 0.132 | [5] -0.036

Looked up one by one from above, two records:
SDCBP (UniProt O00560)
inactive: [1] -0.02 | [2] -0.004 | [3] -0.031 | [4] -0.018 | [5] 0.008

SART1 (UniProt O43290)
inactive: [1] 0.059 | [2] -0.031 | [3] 0.052 | [4] 0.002 | [5] -0.008

Following part.

SAMD4A (UniProt Q9UPU9)
inactive: [1] 0.114 | [2] 0.086 | [3] -0.01 | [4] -0.079 | [5] -0.03

SEC22A (UniProt Q96IW7)
inactive: [1] 0.399 | [2] -0.178
